The target in assay [1] is SMO variant without the C-terminal domain (CTD) (UniProt P56726). Nature of the assay: pull-down.
Assay [2] addresses SMO variant without the cysteine-rich domain (CRD) (UniProt P56726). Briefly: pull-down.

Protein sequences, listed by entry. Tags and fused reporters are not part of them. Lines headed by an entry give the natural chain unless they say otherwise; changes in a name come on top. Residues count along the entry.
UniProt P56726: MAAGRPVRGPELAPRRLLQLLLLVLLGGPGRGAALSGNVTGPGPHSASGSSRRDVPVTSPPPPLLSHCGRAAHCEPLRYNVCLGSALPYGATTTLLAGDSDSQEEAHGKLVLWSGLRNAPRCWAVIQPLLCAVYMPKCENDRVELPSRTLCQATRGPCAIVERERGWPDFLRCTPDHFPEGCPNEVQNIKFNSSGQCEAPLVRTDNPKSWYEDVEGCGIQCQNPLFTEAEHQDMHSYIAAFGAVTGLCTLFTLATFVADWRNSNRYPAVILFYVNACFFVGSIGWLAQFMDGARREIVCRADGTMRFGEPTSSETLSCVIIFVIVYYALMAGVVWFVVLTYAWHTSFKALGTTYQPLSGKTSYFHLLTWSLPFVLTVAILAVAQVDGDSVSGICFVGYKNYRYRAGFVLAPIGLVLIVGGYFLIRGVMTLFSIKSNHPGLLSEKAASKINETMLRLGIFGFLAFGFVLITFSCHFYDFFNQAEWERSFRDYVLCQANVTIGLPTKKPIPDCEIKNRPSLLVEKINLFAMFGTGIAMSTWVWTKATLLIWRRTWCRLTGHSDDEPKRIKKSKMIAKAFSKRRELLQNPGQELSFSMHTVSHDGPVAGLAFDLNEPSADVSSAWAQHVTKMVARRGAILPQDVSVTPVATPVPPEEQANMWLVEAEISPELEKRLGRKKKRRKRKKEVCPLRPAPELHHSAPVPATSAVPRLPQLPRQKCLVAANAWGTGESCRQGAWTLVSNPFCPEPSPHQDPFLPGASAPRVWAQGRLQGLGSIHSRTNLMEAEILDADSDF
UniProt Q15363, residues 21-201: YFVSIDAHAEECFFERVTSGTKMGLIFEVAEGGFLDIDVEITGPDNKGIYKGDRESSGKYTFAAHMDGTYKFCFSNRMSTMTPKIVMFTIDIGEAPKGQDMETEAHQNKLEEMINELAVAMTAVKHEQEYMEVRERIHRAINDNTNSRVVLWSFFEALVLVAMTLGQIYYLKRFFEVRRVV

These are yes or no findings as the source states them, for the method shown. Binding seen in cells or lysates may run through a third protein. A result given as binding can be weak or reduced; the word gives no strength.

For “TMED2 (in 293T cells) (from UniProt Q15363 21-201)”, the binding result in assay [1] and in assay [2] was “binds” in each case.

The values are drawn from paper doi:10.1101/2020.04.20.049957.
